Laboratory results reported in PubChem BioAssay AID1259415 (National Center for Advancing Translational Sciences (NCATS), 2018).
Screen size: about 410,000 compounds; about 18,000 (4.4%) were called active. The shares of active, inactive and inconclusive entries below differ from those in the screen. No stated cut-off is given here; in the data, active means activity change below about -60%; inconclusive means no clear call, values can overlap the other calls; inactive means above about -39%.

Test: qHTS Assay for inhibitors of the human cytomegalovirus (HCMV)
Conditions: HFF cells, HCMV-luciferase reporter, 72 h; at 57.5 µM; hits give low values
Procedure, shortened: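 After 16 h attachment at 37C, HFF cells received test compound and HCMV-luciferase (1 PFU/cell); reporter luminescence read 72 h later, data normalized against buffer-only and known inhibitor Salinomycin.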
On the % scale 0 is the no-effect control and ±100 the full control effect.

Row | Structure (SMILES) | activity change, negative = inhibition
1 | COCCN(Cc1ccco1)C(=O)Cn1ncc2c([nH]c3ccccc32)c1=O | inactive: 1.17%
2 | Cc1ccccc1NC(=O)Cc1nnc(SCC(=O)NC2CCCCC2)n1C | inactive: -29.5%
3 | Cc1ccc(S(=O)(=O)N2CCOC2CNC(=O)C(=O)NCCN2CCOCC2)cc1 (stereo not drawn) | inconclusive: -52.9%
4 | O=C(Cn1nc(Cc2cccnc2)c2ccccc2c1=O)Nc1cccc(C(F)(F)F)c1 | inconclusive: -55.3%
5 | COc1cc(N2C(=O)C=CC2=O)ccc1N1C(=O)C=CC1=O | active: -75.9%
6 | O=C(CN1C(=O)NC(Cc2c[nH]c3ccccc23)C1=O)Nc1ccccc1C(F)(F)F (stereo not drawn) | inconclusive: -55.8%
7 | CC(C)(O)C1=C[N+](=O)CC=C1 | inconclusive: -60%
8 | CCCCn1c(=NC(C)=O)c(C#N)cc2c(=O)n3cccc(C)c3nc21 | inconclusive: 0%
9 | CS(=O)(=O)c1ccc(C(=O)N2CC(=O)Nc3ccccc32)cc1 | inconclusive: -41.9%
10 | Cc1cccc(C)c1N1C(=O)c2ccccc2NC(=O)C1C(=O)NCC(C)C (stereo not drawn) | inconclusive: -54.2%
11 | CC(C)CNS(=O)(=O)c1ccc(C(=O)Nc2ccc3c(c2)OCCO3)cc1 | inactive: -16.7%
12 | O=C(C(=Cc1ccccc1)CN1CCCCC1)c1ccccc1 | active: -75.7%
13 | COCc1cc(N2CCCCC2)nc(-c2ccccc2)n1 | inconclusive: -48.4%
14 | Cc1ccnc(NS(=O)(=O)c2ccc(N)cc2)n1 | inconclusive: -54.5%
15 | COc1ccc(CNC(=O)c2sc(=O)n(Cc3cc(Cl)ccc3OC)c2C)cc1 | inconclusive: -40.7%
16 | CC(=O)O[C@]1(C(C)=O)CCC2C3C=C(C)C4=CC(=O)CC[C@]4(C)C3CC[C@@]21C (stereo partly drawn) | inconclusive: -48.3%
17 | COc1ccccc1C(=O)NC(=O)Nc1c(C)cc(C)cc1C | inconclusive: -46.5%
18 | CCOc1cc(CNCC2CCCO2)cc(Br)c1OCC(N)=O (stereo not drawn) | active: -69.1%
19 | COc1cc(/C=C2/SC(=Nc3ccc(O)cc3)NC2=O)ccc1O | active: -77.2%
20 | CSc1ccc(CN(C)CC(=O)Nc2ccc(NC(C)=O)cc2)cc1 | inconclusive: -55.8%
21 | COc1cc2ccc(C(=O)O)cc2cc1OC | inactive: 16.6%
22 | CC(C)C[C@@H](CN1CCC[C@@H]1CN1C(=O)C(=O)NC[C@@H]1Cc1ccccc1)N1C[C@H](Cc2ccc(O)cc2)N(CC2CCCCC2)C(=O)C1=O | inconclusive: -51%

Arranged by molar mass (falling): some entries from above.
Row | Structure (SMILES) | activity change, negative = inhibition
3 | Cc1ccc(S(=O)(=O)N2CCOC2CNC(=O)C(=O)NCCN2CCOCC2)cc1 (stereo not drawn) | inconclusive: -52.9%
2 | Cc1ccccc1NC(=O)Cc1nnc(SCC(=O)NC2CCCCC2)n1C | inactive: -29.5%
20 | CSc1ccc(CN(C)CC(=O)Nc2ccc(NC(C)=O)cc2)cc1 | inconclusive: -55.8%

Later entries.

Row | Structure (SMILES) | activity change, negative = inhibition
23 | CC1CCc2onc(C(=O)N3CCN(c4cccc(C(F)(F)F)c4)CC3)c2C1 (stereo not drawn) | inconclusive: -54.6%
24 | NC(=O)OCC(COC(N)=O)c1ccccc1 | inconclusive: -56.1%
25 | Nc1cc(=O)[nH]c(SCC(=O)Nc2ccc(S(=O)(=O)N3CCCCC3)cc2)n1 | inconclusive: -45.1%
26 | Oc1cccc(C2c3[nH]c4ccccc4c3CCN2Cc2ccc3c(c2)CCO3)c1 (stereo not drawn) | inactive: -20.6%
27 | COc1cccc2sc(Nc3nnc(-c4cccs4)o3)nc12 | active: -86.2%
28 | CC1(C)CCCC2=C1CC1C(=O)N(c3ccccc3)C(=O)C1C2 (stereo not drawn) | inconclusive: -40.2%
29 | Cc1nn(-c2ccccc2)c(N2CCCC2)c1/C=N/NC(=S)Nc1ccccc1F | active: -61.3%
30 | C/C(CC(=O)Nc1ccc(Cl)c(C(F)(F)F)c1)=N\NC(=O)c1ccccc1O | active: -80.4%
31 | O=C(COc1ccc(Br)cc1Cl)N1CCN(c2ccccn2)CC1 | inconclusive: -58.3%
32 | COc1cc(C(=O)NCC(=O)NCCN2C(=O)S/C(=C\c3ccccc3Cl)C2=O)cc(OC)c1OC | inconclusive: -43.1%
33 | N=c1c2c(-c3ccccc3)c(-c3ccccc3)n(Cc3ccco3)c2ncn1Cc1ccco1 | inactive: -13.3%
34 | CCn1c(=O)c(-c2ccccc2)c(O)c2ccccc21 | inactive: -17.1%
35 | O=c1[nH]c(=O)n(-c2ccccc2F)c(O)c1C=NCCC1=CCCCC1 | inconclusive: -42.5%
36 | NC(=O)c1c(NC(=O)CSc2nnc(Cc3ccccc3)n2Cc2ccco2)sc2c1CCC2 | inconclusive: -48.2%
37 | COCC1OS(=O)(=O)NC(CC(=O)SC(C)(C)C)C1C (stereo not drawn) | inconclusive: -47.5%
38 | O=C(COc1ccccc1F)N/N=C1\CCCc2ccccc21 | inactive: 41.2%
39 | COc1ccc(CC(N)c2csc(NC(=O)C(c3ccccc3)c3ccccc3)n2)cc1 (stereo not drawn) | active: -64.8%
40 | Cc1cccc(OP(=O)(Nc2cccnc2)Oc2cccc(C)c2)c1 | inconclusive: -45.7%
41 | Cc1ccc2nc(CSc3nnc(NC(=O)COc4ccccc4)s3)cc(=O)n2c1 | inconclusive: -48.8%
42 | COc1cccc(NC(=O)CCC(=O)N2CC(C)Oc3ccc(C)cc32)c1 (stereo not drawn) | inconclusive: -43.6%
43 | CC1CN(C(=S)NC(=O)c2ccc(Cl)cc2)CC(C)O1 (stereo not drawn) | inconclusive: -44.4%
